Data from patent publication US20160319034A1 (ONCOMED PHARMACEUTICALS, published 2016).
These are yes or no findings as the source states them, for the method shown. Some entries that bind do so weakly or less than the wild type. Where a sequence is shown, tags or fusion partners need not be part of it.

The chains behind the UniProt entries cited, without tags or fusion partners. Where a name states a change or a piece, a line headed by the entry shows the natural chain unless it says otherwise.
UniProt P08581: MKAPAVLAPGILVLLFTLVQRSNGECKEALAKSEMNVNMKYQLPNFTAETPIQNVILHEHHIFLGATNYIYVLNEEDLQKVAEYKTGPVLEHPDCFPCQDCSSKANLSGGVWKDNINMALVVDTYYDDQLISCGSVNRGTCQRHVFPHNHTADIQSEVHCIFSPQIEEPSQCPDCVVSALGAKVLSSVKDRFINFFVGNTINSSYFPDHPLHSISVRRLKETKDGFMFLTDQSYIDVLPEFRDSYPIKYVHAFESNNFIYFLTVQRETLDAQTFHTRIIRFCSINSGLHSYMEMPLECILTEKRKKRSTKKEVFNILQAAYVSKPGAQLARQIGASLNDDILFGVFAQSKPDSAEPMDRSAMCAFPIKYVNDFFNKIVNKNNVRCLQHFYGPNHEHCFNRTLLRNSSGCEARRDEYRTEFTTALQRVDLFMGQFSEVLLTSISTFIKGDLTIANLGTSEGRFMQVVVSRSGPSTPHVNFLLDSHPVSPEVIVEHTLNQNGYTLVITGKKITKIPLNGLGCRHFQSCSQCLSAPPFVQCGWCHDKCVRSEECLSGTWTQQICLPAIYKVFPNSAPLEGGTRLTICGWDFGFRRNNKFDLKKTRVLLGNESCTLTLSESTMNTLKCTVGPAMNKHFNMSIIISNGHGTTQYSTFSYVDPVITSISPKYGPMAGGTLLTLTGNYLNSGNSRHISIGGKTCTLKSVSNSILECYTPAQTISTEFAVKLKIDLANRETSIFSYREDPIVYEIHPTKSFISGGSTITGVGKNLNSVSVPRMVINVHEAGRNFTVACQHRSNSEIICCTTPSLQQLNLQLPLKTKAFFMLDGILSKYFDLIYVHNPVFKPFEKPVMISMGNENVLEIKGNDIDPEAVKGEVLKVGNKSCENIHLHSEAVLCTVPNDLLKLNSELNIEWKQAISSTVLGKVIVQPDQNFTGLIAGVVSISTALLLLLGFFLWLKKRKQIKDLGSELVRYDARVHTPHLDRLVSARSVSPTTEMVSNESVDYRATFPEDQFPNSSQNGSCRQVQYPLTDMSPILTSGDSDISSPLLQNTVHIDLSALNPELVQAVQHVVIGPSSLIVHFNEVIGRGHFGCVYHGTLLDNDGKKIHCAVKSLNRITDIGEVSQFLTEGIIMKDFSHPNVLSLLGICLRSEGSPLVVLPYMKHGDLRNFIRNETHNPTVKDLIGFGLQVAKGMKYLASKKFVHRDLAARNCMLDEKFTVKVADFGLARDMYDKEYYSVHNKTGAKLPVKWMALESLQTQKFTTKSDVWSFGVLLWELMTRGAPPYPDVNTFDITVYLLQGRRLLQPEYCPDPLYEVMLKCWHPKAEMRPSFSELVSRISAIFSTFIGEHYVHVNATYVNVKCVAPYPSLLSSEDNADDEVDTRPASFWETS

Biological target: human MET (soluble analyte in the Biacore assay) (human) (UniProt P08581)
Assay: SPR (Biacore 2000)

binding | Binder
binds | anti-MET/FZD8-Fc bispecific agent 315B06 (bispecific antibody, human IgG2, kappa, Heterodimer with one anti-MET arm (heavy and light chain) and one FZD8-Fc soluble receptor arm; also called bispecific anti-MET/FZD8-Fc agent 315B06; 351B06 [sic]) heavy: QVQLQESGPGLVKPSETLSLTCTVTGTTITASYAWSWIRQPPGKGLEWMGYISYSGGTDYNPSLKSRITISRDTFKNQFSLKLSSVTAADTATYYCARKGAYWGQGTLVTVSSASTKGPSVFPLAPCSRSTSESTAALGCLVKDYFPEPVTVSWNSGALTSGVHTFPAVLQSSGLYSLSSVVTVPSSNFGTQTYTCNVDHKPSNTKVDKTVERKCCVECPPCPAPPVAGPSVFLFPPKPKDTLMISRTPEVTCVVVDVSHEDPEVQFNWYVDGVEVHNAKTKPREEQFNSTFRVVSVLTVVHQDWLNGKEYKCKVSNKGLPAPIEKTISKTKGQPREPQVYTLPPSREKMTKNQVSLTCLVKGFYPSDIAVEWESNGQPENNYKTTPPMLKSDGSFFLYSKLTVDKSRWQQGNVFSCSVMHEALHNHYTQKSLSLSPGK light: DIVLTQSPATLSASPGEKVTLTCSASSSVSSSYLYWYQQKPGQAPKLLIYSTSNLASGVPARFSGSGSGTSYSLTISSLEPEDFATYYCHQWSSYPYTFGGGTKLEIKRTVAAPSVFIFPPSDEQLKSGTASVVCLLNNFYPREAKVQWKVDNALQSGNSQESVTEQDSKDSTYSLSSTLTLSKADYEKHKVYACEVTHQGLSSPVTKSFNRGEC ASAKELACQEITVPLCKGIGYNYTYMPNQFNHDTQDEAGLEVHQFWPLVEIQCSPDLKFFLCSMYTPICLEDYKKPLPPCRSVCERAKAGCAPLMRQYGFAWPDRMRCDRLPEQGNPDTLCMDYNRTDLTTTKVDKTVERKSCVECPPCPAPPVAGPSVFLFPPKPKDTLMISRTPEVTCVVVDVSHEDPEVQFNWYVDGVEVHNAKTKPREEQFNSTFRVVSVLTVVHQDWLNGKEYKCKVSNKGLPAPIEKTISKTKGQPREPQVYTLPPSREEMTKNQVSLTCLVEGFYPSDIAVEWESNGQPENNYKTTPPMLDSDGSFFLYSELTVDKSRWQQGNVFSCSVMHEALHNHYTQKSLSLSPGK
binds | monovalent version of anti-MET antibody 73R009 (antibody, V domains shown, Only the 73R009 variable regions can be tied to this molecule; also called monovalent anti-MET antibody 73R009; monovalent version of 73R009) VH: QVQLQESGPGLVKPSETLSLTCTVTGTTITASYAWSWIRQPPGKGLEWMGYISYSGGTDYNPSLKSRITISRDTFKNQFSLKLSSVTAADTATYYCARKGAYWGQGTLVTVSS VL: DIVLTQSPATLSASPGEKVTLTCSASSSVSSSYLYWYQQKPGQAPKLLIYSTSNLASGVPARFSGSGSGTSYSLTISSLEPEDFATYYCHQWSSYPYTFGGGTKLEIK
